test system: Caco-2 cell monolayer; experiment: Caco-2 monolayer integrity, Lucifer Yellow leakage; type: in vitro ADME; conditions: Lucifer Yellow leakage after transport, compound 5 µM

| SMILES | LY Leakage A-B | LY Leakage B-A |
| --- | --- | --- |
| CCCCCCCCCCCCCC1OC(=O)CN(C)C(=O)C=CC(CN2CCN(C)CC2)NC(=O)CNC(=O)C(C)(O)C(=O)C1C (stereo not drawn) [BE-NMP] | 0.32% | 0.20% |
| CCCCOc1ccc(-c2ccc(-c3ccc(Cn4cc(CCCCC[C@H]5OC(=O)CN(C)C(=O)/C=C/[C@@H](CN6CCN(C)CC6)NC(=O)CNC(=O)[C@@](C)(O)C(=O)[C@H]5C)nn4)cc3)cc2)cc1 [Compound 29] | 0.21% | 0.17% |
| CC1C(=O)C(C)(O)C(=O)NCC(=O)NC(CN2CCN(C)CC2)C=CC(=O)N(C)CC(=O)OC1CCCCc1cn(CCCCCCCCNC(=N)N)nn1 (stereo not drawn) [Compound 31] | 0.20% | 0.18% |
| C[C@@H]1C(=O)[C@](C)(O)C(=O)NCC(=O)N[C@H](CN2CCN(C)CC2)/C=C/C(=O)N(C)CC(=O)O[C@H]1CCCCCc1cn(CCCCCCCCCC(=O)O)nn1 [Compound 39] | 0.56% | 0.17% |
| C[C@@H]1C(=O)[C@](C)(O)C(=O)NCC(=O)N[C@H](CN2CCN(C)CC2)/C=C/C(=O)N(C)CC(=O)O[C@H]1CCCCCc1cn(CCCCCCCNc2cccc3c2CN(C2CCC(=O)NC2=O)C3=O)nn1 (stereo partly drawn) [Compound 40] | 0.22% | 0.18% |
| C[C@H]1O[C@@H](O[C@H]2[C@@H](O)C[C@H](O[C@H]3[C@@H](O)C[C@H](O[C@H]4CC[C@@]5(C)[C@H](CC[C@@H]6[C@@H]5C[C@@H](O)[C@]5(C)[C@@H](C7=CC(=O)OC7)CC[C@]65O)C4)O[C@@H]3C)O[C@@H]2C)C[C@H](O)[C@@H]1O [Digoxin, reference compound] | 0.21% | 0.22% |

Source: publication PMC12843137, “Fine-Tuning Side Chain Substitutions: Impacts on the Lipophilicity–Solubility–Permeability Interplay in Macrocyclic Peptides” (Marine Drugs, 2025)
